Experimental findings from the supplement of paper PMC8728848 are described below.

Some of the results follow.

Assay in all cases: glycan array binding signal (z-score within array); higher = stronger binding
Conditions in all cases: glycan notation: IUPAC condensed, linker removed

In experiment [1] the target is Gal(b1-4)GlcNAc(b1-2)Man(a1-6)[Man(a1-3)]Man(b1-4)GlcNAc(b1-4)GlcNAc. Put shortly:
(§1)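 The Consortium for Functional Glycomics database supplied 3228 glycan arrays, of which those lacking an available protein sequence were dropped. The binding signal, a within-array Z-score, was averaged across arrays of the same protein sequence and across linkers. Negative scores can be read as non-binding.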

Experiment [2] deals with Gal(b1-4)GlcNAc(b1-2)[Gal(b1-4)GlcNAc(b1-4)]Man(a1-3)[Gal(b1-4)GlcNAc(b1-2)Man(a1-6)]Man(b1-4)GlcNAc(b1-4)GlcNAc. In outline:
as §1

In experiment [3] the target is Gal(b1-4)GlcNAc(b1-2)[Gal(b1-4)GlcNAc(b1-4)]Man(a1-3)[Gal(b1-4)GlcNAc(b1-2)[Gal(b1-4)GlcNAc(b1-6)]Man(a1-6)]Man(b1-4)GlcNAc(b1-4)GlcNAc. In outline:
as §1

The target in experiment [4] is Gal(b1-4)GlcNAc(b1-2)[Gal(b1-4)GlcNAc(b1-4)]Man(a1-3)[GlcNAc(b1-4)][Gal(b1-4)GlcNAc(b1-2)Man(a1-6)]Man(b1-4)GlcNAc(b1-4)GlcNAc. Put shortly:
as §1

For experiment [5], the target named is Gal(b1-4)GlcNAc(b1-2)[Gal(b1-4)GlcNAc(b1-4)]Man(a1-3)[GlcNAc(b1-4)][Gal(b1-4)GlcNAc(b1-2)[Gal(b1-4)GlcNAc(b1-6)]Man(a1-6)]Man(b1-4)GlcNAc(b1-4)GlcNAc. Put shortly:
as §1

Experiment [6] addresses Gal(b1-4)GlcNAc(b1-2)[Gal(b1-4)GlcNAc(b1-6)]Man(a1-6)[Gal(b1-4)GlcNAc(b1-2)Man(a1-3)]Man(b1-4)GlcNAc(b1-4)GlcNAc. Put shortly: as §1
Experiment [7] concerns the target Gal(b1-4)GlcNAc(b1-2)[Gal(b1-4)GlcNAc(b1-6)]Man(a1-6)[Gal(b1-4)GlcNAc(b1-2)Man(a1-3)]Man(b1-4)GlcNAc(b1-4)[Fuc(a1-6)]GlcNAc. Put shortly: as §1
In experiment [8] the target is Gal(b1-4)GlcNAc(b1-2)[Gal(b1-4)GlcNAc(b1-6)]Man(a1-6)[GlcNAc(b1-4)][Gal(b1-4)GlcNAc(b1-2)Man(a1-3)]Man(b1-4)GlcNAc(b1-4)GlcNAc. Put shortly: as §1
Experiment [9] has as its target Gal(b1-4)GlcNAc(b1-2)[Gal(b1-4)GlcNAc(b1-6)]Man(a1-6)[GlcNAc(b1-4)][Gal(b1-4)GlcNAc(b1-2)[Gal(b1-4)GlcNAc(b1-4)]Man(a1-3)]Man(b1-4)GlcNAc(b1-4)[Fuc(a1-6)]GlcNAc. In outline: as §1
In experiment [10] the target is Gal(b1-4)GlcNAc(b1-3)Gal(b1-3)GalNAc. In outline:
as §1

Experiment [11] addresses Gal(b1-4)GlcNAc(b1-3)Gal(b1-3)GlcNAc. Put shortly: as §1
Experiment [12] addresses Gal(b1-4)GlcNAc(b1-3)Gal(b1-4)Glc. Put shortly:
as §1

Experiment [13] addresses Gal(b1-4)GlcNAc(b1-3)Gal(b1-4)GlcNAc. Put shortly:
as §1

Experiment [14] addresses Gal(b1-4)GlcNAc(b1-3)Gal(b1-4)GlcNAc(b1-2)Man(a1-3)[Gal(b1-4)GlcNAc(b1-3)Gal(b1-4)GlcNAc(b1-2)Man(a1-6)]Man(b1-4)GlcNAc(b1-4)GlcNAc. In outline: as §1
The target in experiment [15] is Gal(b1-4)GlcNAc(b1-3)Gal(b1-4)GlcNAc(b1-2)Man(a1-3)[Gal(b1-4)GlcNAc(b1-3)Gal(b1-4)GlcNAc(b1-2)Man(a1-6)]Man(b1-4)GlcNAc(b1-4)[Fuc(a1-6)]GlcNAc. In outline: as §1
For experiment [16], the target named is Gal(b1-4)GlcNAc(b1-3)Gal(b1-4)GlcNAc(b1-2)[Gal(b1-4)GlcNAc(b1-3)Gal(b1-4)GlcNAc(b1-6)]Man(a1-6)[Gal(b1-4)GlcNAc(b1-3)Gal(b1-4)GlcNAc(b1-2)Man(a1-3)]Man(b1-4)GlcNAc(b1-4)GlcNAc. Put shortly: as §1
Experiment [17] deals with Gal(b1-4)GlcNAc(b1-3)Gal(b1-4)GlcNAc(b1-2)[Gal(b1-4)GlcNAc(b1-3)Gal(b1-4)GlcNAc(b1-6)]Man(a1-6)[Gal(b1-4)GlcNAc(b1-3)Gal(b1-4)GlcNAc(b1-2)Man(a1-3)]Man(b1-4)GlcNAc(b1-4)[Fuc(a1-6)]GlcNAc. In outline:
as §1

Experiment [18] addresses Gal(b1-4)GlcNAc(b1-3)Gal(b1-4)GlcNAc(b1-3)Gal(b1-4)GlcNAc. Put shortly:
as §1

Experiment [19] deals with Gal(b1-4)GlcNAc(b1-3)Gal(b1-4)GlcNAc(b1-3)Gal(b1-4)GlcNAc(b1-2)Man(a1-3)[Gal(b1-4)GlcNAc(b1-3)Gal(b1-4)GlcNAc(b1-3)Gal(b1-4)GlcNAc(b1-2)Man(a1-6)]Man(b1-4)GlcNAc(b1-4)GlcNAc. In outline:
as §1

The target in experiment [20] is Gal(b1-4)GlcNAc(b1-3)Gal(b1-4)GlcNAc(b1-3)Gal(b1-4)GlcNAc(b1-2)Man(a1-3)[Gal(b1-4)GlcNAc(b1-3)Gal(b1-4)GlcNAc(b1-3)Gal(b1-4)GlcNAc(b1-2)Man(a1-6)]Man(b1-4)GlcNAc(b1-4)[Fuc(a1-6)]GlcNAc. Put shortly:
as §1

The target in experiment [21] is Gal(b1-4)GlcNAc(b1-3)Gal(b1-4)GlcNAc(b1-3)Gal(b1-4)GlcNAc(b1-2)[Gal(b1-4)GlcNAc(b1-3)Gal(b1-4)GlcNAc(b1-3)Gal(b1-4)GlcNAc(b1-6)]Man(a1-6)[Gal(b1-4)GlcNAc(b1-3)Gal(b1-4)GlcNAc(b1-3)Gal(b1-4)GlcNAc(b1-2)Man(a1-3)]Man(b1-4)GlcNAc(b1-4)[Fuc(a1-6)]GlcNAc. Put shortly:
as §1

Experiment [22] deals with Gal(b1-4)GlcNAc(b1-3)Gal(b1-4)GlcNAc(b1-3)Gal(b1-4)GlcNAc(b1-3)Gal(b1-4)GlcNAc(b1-2)Man(a1-3)[Gal(b1-4)GlcNAc(b1-3)Gal(b1-4)GlcNAc(b1-3)Gal(b1-4)GlcNAc(b1-3)Gal(b1-4)GlcNAc(b1-2)Man(a1-6)]Man(b1-4)GlcNAc(b1-4)GlcNAc. In outline:
as §1

B1: Tp0751, 83732 (protein)
chain: MSYYHHHHHHLESTSLYKKAGFQHGHVPPRRIPPHDTFGALPTAALPSNARDTAAHPSDTADNTSGSSTTTDPRSHGNAPPAPVGGAAQTHTQPPVQTAMRIALWNRATHGEQGALQHLLAGLWIQTEISPNSGDIHPLLFFDREHAEITFSRASVQEIFLVDSAHTHRKTVSFLTRNTAISSIRRRLEVTFESHEVIHVRAVEDVARLKIGSTSMWDGQYTRYHAGPASAPSP
For the molecule B1, the “glycan array binding signal (z-score)” value in experiment [1] was -0.482; in [2], 0.091; in [3] it was 0.31; in [4] it was 0.421; in experiment [5] it was 0.259; in [6], -0.642. Further, the “glycan array binding signal (z-score)” value in [7] is -0.483; in experiment [8] it was -0.056; in experiment [9], -0.637; in [10], 0.46; in experiment [11], -0.642; in [12], -0.441. Also, the “glycan array binding signal (z-score)” value was -0.102 in experiment [13]; 0.892 in [14]; -0.361 in experiment [15]; 1.47 in experiment [16]; 0.08 in experiment [17]; 0.01 in [18]. Besides, the “glycan array binding signal (z-score)” value in experiment [19] is 0.252; in [20], -0.225; in experiment [21] it was 0.196; in experiment [22] it was 0.286.
